Assay results as given in US20240082277A1, “MODIFIED ANTIHISTAMINE COMPOSITION AND ANTIVIRAL TREATMENT” (priority 2022, published 2024).
Counter-ions that a name gives are not always drawn.

Assays:
[1] = system: SARS-CoV-2 Delta (B.1.617.2); assay: microbe, parasite or virus in culture; details: Severe acute respiratory syndrome coronavirus 2, VeroE6/TMPRSS2, read-out: % cell viability
[2] = system: SARS-CoV-2 Omicron (B.1.1.529); assay: microbe, parasite or virus in culture; details: Severe acute respiratory syndrome coronavirus 2, VeroE6/TMPRSS2, read-out: % cell viability

**Q.** For `CN(C)CCOC(c1ccccc1)c1ccccc1` [Diphenhydramine hydrochloride], which viability at 31.691 µg/mL [1] is on record?
**A.** The viability at 31.691 µg/mL was 111%.

**Q.** And the viability at 100.144 µg/mL [1]?
**A.** Its viability at 100.144 µg/mL is 114%.

**Q.** What about the viability at 100.144 µg/mL [2] of the same molecule?
**A.** Its viability at 100.144 µg/mL is 20.6%.

**Q.** What about the viability at 316.456 µg/mL [2] of the same molecule?
**A.** The viability at 316.456 µg/mL was 35.1%.
